Laboratory results as given in patent US20240368301A1.
These are yes or no findings as the source states them, for the method shown. Some results given as binding are weak or reduced against the parent protein; the word gives no strength.

Target: cynomolgus macaques SIRPα-his (ACRO, Cat #SIA-C52H7) (cynomolgus macaque)
Assay: BLI (Octet RED 96)

binding: binds
B1: AD4-12 (antibody, V domains shown)
VH: EVQLEESGPGLVAPSQSLSITCTVSGFSLTGYGVNWVRQPPGKGLEWLGIIWGDGSTDYNSALKSRLSISKDNSKSQVFLKMNSLQSDDTARYYCARAGKMDYWGQGTSVTVSS
VL: DIVLTQSPASLAVSLGQGATISCRASESVDSYGNSFMHWYQQKPGQPPKPLIYLASNLESGVPARFSGSGSRTDFTLTIDPVEADDAATYYCQQNNEYPWTFGGGTKLEIK
